No constants are given. Whether binding was seen depends on the method and setting. Binding seen in cells or lysates may run through a third protein. Some binding calls cover weakened binding; strength is not graded here.
Target: PML-V5 (PML tumor suppressor protein, from PML pcDNA4/V5-His) (UniProt P29590)
Assay: co-IP; 293T cells co-transfected with PML-V5 and Myc-tagged CSNK2A1 or CSNK2A1P; 10 µM MG132 24 h after transfection; NP-40 lysis buffer (150 mM NaCl, 50 mM Tris pH 8.0, 1% NP40); reciprocal immunoprecipitation with anti-Myc tag and anti-V5 tag antibodies (Catch and Release v2.0)

Protein sequences, listed by entry. Tags and fused reporters are not part of them.
UniProt P29590: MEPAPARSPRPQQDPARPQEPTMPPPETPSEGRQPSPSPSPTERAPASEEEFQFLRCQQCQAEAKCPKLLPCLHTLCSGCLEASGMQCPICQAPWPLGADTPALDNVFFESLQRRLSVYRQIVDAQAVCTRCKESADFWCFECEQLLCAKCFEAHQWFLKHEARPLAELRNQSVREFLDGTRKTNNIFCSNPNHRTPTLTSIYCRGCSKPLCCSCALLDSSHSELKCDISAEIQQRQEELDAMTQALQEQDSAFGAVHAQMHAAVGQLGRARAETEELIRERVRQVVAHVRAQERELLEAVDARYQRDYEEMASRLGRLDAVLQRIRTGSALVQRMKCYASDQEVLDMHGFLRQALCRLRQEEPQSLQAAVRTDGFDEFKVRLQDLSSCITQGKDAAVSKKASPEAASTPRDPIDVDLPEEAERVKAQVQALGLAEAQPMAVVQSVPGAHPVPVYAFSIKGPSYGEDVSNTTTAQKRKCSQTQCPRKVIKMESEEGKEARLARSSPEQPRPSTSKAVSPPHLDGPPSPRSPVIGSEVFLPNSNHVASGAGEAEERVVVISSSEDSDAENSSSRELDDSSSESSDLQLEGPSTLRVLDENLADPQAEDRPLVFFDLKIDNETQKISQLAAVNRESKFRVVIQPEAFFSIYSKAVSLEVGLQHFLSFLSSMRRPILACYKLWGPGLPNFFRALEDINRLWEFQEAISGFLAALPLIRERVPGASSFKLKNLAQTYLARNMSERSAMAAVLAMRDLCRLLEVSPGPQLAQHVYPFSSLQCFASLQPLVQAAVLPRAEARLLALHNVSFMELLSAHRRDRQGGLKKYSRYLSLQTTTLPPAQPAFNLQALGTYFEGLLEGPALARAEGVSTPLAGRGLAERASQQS
UniProt P68400: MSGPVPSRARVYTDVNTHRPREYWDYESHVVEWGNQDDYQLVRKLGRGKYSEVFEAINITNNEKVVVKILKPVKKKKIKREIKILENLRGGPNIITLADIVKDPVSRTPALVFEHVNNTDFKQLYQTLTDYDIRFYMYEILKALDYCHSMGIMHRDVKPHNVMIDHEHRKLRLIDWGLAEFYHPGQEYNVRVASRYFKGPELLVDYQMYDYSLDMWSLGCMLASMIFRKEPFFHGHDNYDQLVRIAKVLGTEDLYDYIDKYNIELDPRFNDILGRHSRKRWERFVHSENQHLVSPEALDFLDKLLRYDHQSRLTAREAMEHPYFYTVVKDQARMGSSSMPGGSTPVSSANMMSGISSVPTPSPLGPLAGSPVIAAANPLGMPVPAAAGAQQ
UniProt Q8NEV1: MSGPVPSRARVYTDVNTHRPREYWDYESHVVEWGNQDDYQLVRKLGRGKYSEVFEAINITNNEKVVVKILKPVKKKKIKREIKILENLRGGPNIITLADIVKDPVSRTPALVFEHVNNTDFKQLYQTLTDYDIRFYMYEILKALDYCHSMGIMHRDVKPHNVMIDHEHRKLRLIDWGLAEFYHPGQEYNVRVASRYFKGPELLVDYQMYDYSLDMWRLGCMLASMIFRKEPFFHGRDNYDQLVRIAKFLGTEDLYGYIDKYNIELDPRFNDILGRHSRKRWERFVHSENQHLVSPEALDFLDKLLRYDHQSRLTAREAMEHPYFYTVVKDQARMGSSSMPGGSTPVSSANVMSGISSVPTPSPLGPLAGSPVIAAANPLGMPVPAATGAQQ

Substance | binding
Myc-tagged CSNK2A1 (CK2α, from CSNK2A1 pcDNA3.1/myc-His) (from UniProt P68400 1-391) (enzyme) | binds
Myc-tagged CSNK2A1P (I133), product of the 398T allele of the CK2α intronless gene (from UniProt Q8NEV1 1-391) (enzyme) | binds
